Measurements reported in EP4692123A1, “ANTI-BCAM ANTIBODY AND ANTIBODY-DRUG CONJUGATE” (priority 2023, dated 2024).
No constants are given. Whether binding was seen depends on the method and setting. Some binding calls cover weakened binding; strength is not graded here.

Assays:
[1] = target: T1, human BCAM antigen protein expressed on the cell surface (human) (UniProt P50895); test: confocal microscopy of SK-BR-3 cells, 10 µg/mL antibody, 4°C for 1 hour
T1 sequence (looked up): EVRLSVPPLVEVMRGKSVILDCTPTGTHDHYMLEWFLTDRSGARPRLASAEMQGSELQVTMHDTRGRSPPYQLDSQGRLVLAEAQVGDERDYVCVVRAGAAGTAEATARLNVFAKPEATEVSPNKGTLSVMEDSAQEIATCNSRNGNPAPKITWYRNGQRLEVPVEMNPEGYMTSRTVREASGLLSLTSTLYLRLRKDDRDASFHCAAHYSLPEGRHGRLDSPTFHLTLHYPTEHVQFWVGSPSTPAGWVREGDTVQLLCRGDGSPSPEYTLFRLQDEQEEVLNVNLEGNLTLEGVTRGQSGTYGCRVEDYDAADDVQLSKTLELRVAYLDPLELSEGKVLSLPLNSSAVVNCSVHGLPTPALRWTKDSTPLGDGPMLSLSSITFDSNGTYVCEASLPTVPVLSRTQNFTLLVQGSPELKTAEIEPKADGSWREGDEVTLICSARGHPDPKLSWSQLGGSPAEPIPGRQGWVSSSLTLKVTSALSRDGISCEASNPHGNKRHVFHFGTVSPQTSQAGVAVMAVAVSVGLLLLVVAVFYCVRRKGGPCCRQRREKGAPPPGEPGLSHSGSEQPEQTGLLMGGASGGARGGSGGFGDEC

[2] = target: T1, human BCAM antigen protein expressed on the cell surface (human); test: flow cytometry on HEK293FT cells transfected with human BCAM

B1: Ab-I antibody (anti-BCAM human IgG4 antibody) (antibody, V domains shown)
VH: EVQLVESGGGLVKPGGSLRLSCAASGFTFSSYSMNWVRQAPGKGLEWVSSISSSSSYIYYADSVKGRFTISRDNAKNSLYLQMNSLRAEDTAVYYCARIIGGWLGDYWGQGTLVTVSS
VL: NIQMTQSPSSVSASVGDRVTITCRASQGISSWLAWYQQKPGKAPKLLIYAASSLRSGVPSRFSGSGSGTDFTLTISSLQPEDFATYYCQQANSFPPPTFGGGTKVEIK
notes: From a human scFv phage library, expressed in ExpiCHO-S
With B1 the binding [1] was “binds” and the binding [2] was “binds”.
